# The supplement of paper PMC8728848
# The other results are listed elsewhere or left out.
# B1: SUN4 (Saccharomyces cerevisiae), P53616 (protein)
# chain: MGSSHHHHHHSSGLVPRGSHNGSIYGDLADFSGPYEKFEDGTIPCGQFPSGQGVIPISWLDEGGWSGVENTDTSTGGSCKEGSYCSYACQPGMSKTQWPSDQPSDGRSIGGLLCKDGYLYRSNTDTDYLCEWGVDAAYVVSELSNDVAICRTDYPGTENMVIPTYVQAGDSLPLTVVDQDTYYTWQGLKTSAAYYVNNAGISVEDACVWGSSSSGVGNWAPLNFGAGSSDGVAYLSLIPNPNNGNALNFNVKIVAADDSSTVNGECIYENGSFSGGSDGCTVSVTAGKAKFVLYN
# Experiments:
# Assay in all cases: glycan array binding signal (z-score within array); higher = stronger binding
# Conditions in all cases: glycan notation: IUPAC condensed, linker removed; mutation: Q318A
# [1] = molecular target: Fuc(a1-2)Gal(b1-4)[Fuc(a1-3)]GlcNAc
# How it was run: (§1)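 The Consortium for Functional Glycomics database supplied 3228 glycan arrays, of which those lacking an available protein sequence were dropped. The binding signal, a within-array Z-score, was averaged across arrays of the same protein sequence and across linkers. Negative scores can be read as non-binding.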
# [2] = molecular target: Fuc(a1-2)Gal(b1-4)[Fuc(a1-3)]GlcNAc(b1-2)Man(a1-3)[Fuc(a1-2)Gal(b1-4)[Fuc(a1-3)]GlcNAc(b1-2)Man(a1-6)]Man(b1-4)GlcNAc(b1-4)[Fuc(a1-6)]GlcNAc
# How it was run: as §1
# [3] = molecular target: Fuc(a1-2)Gal(b1-4)[Fuc(a1-3)]GlcNAc(b1-2)[Fuc(a1-2)Gal(b1-4)[Fuc(a1-3)]GlcNAc(b1-4)]Man(a1-3)[Fuc(a1-2)Gal(b1-4)[Fuc(a1-3)]GlcNAc(b1-2)Man(a1-6)]Man(b1-4)GlcNAc(b1-4)GlcNAc
# How it was run: as §1
# [4] = molecular target: Fuc(a1-2)Gal(b1-4)[Fuc(a1-3)]GlcNAc(b1-3)Gal(b1-4)[Fuc(a1-3)]GlcNAc
# How it was run: as §1
# [5] = molecular target: Fuc(a1-2)Gal(b1-4)[Fuc(a1-3)]GlcNAc(b1-3)Gal(b1-4)[Fuc(a1-3)]GlcNAc(b1-3)Gal(b1-4)[Fuc(a1-3)]GlcNAc
# How it was run: as §1
# [6] = molecular target: Fuc(a1-2)Gal(b1-4)[Fuc(a1-3)]GlcNAc(b1-3)GalNAc
# How it was run: as §1
# [7] = molecular target: Fuc(a1-2)Gal(b1-4)[Fuc(a1-3)]GlcNAc(b1-3)[Neu5Ac(a2-6)Gal(b1-4)GlcNAc(b1-6)]Gal(b1-4)Glc
# How it was run: as §1
# [8] = molecular target: Fuc(a1-2)Gal3S(b1-4)GlcNAc
# How it was run: as §1
# [9] = molecular target: Fuc(a1-2)Gal6S(b1-3)GlcNAc
# How it was run: as §1
# [10] = molecular target: Fuc(a1-2)Gal6S(b1-3)GlcNAc6S
# How it was run: as §1
# Fuc(a1-2)Gal6S(b1-4)Glc = molecular target: Fuc(a1-2)Gal6S(b1-4)Glc
# How it was run: as §1
# [11] = molecular target: Fuc(a1-2)Gal6S(b1-4)Glc6S
# How it was run: as §1
# Fuc(a1-2)[Gal(a1-3)]Gal = molecular target: Fuc(a1-2)[Gal(a1-3)]Gal
# How it was run: as §1
# [12] = molecular target: Fuc(a1-2)[Gal(a1-3)]Gal(b1-3)GalNAc
# How it was run: as §1
# [13] = molecular target: Fuc(a1-2)[Gal(a1-3)]Gal(b1-3)GalNAc(b1-3)Gal(a1-4)Gal(b1-4)Glc
# How it was run: as §1
# [14] = molecular target: Fuc(a1-2)[Gal(a1-3)]Gal(b1-3)GlcNAc
# How it was run: as §1
# [15] = molecular target: Fuc(a1-2)[Gal(a1-3)]Gal(b1-3)GlcNAc(b1-2)Man(a1-3)[Fuc(a1-2)[Gal(a1-3)]Gal(b1-3)GlcNAc(b1-2)Man(a1-6)]Man(b1-4)GlcNAc(b1-4)GlcNAc
# How it was run: as §1
# [16] = molecular target: Fuc(a1-2)[Gal(a1-3)]Gal(b1-3)GlcNAc(b1-2)Man(a1-3)[Fuc(a1-2)[Gal(a1-3)]Gal(b1-3)GlcNAc(b1-2)Man(a1-6)]Man(b1-4)GlcNAc(b1-4)[Fuc(a1-6)]GlcNAc
# How it was run: as §1
# [17] = molecular target: Fuc(a1-2)[Gal(a1-3)]Gal(b1-3)GlcNAc(b1-3)GalNAc
# How it was run: as §1
# [18] = molecular target: Fuc(a1-2)[Gal(a1-3)]Gal(b1-3)GlcNAc(b1-6)GalNAc
# How it was run: as §1
# [19] = molecular target: Fuc(a1-2)[Gal(a1-3)]Gal(b1-4)Glc
# How it was run: as §1
# [20] = molecular target: Fuc(a1-2)[Gal(a1-3)]Gal(b1-4)GlcNAc
# How it was run: as §1
# [21] = molecular target: Fuc(a1-2)[Gal(a1-3)]Gal(b1-4)GlcNAc(b1-2)Man
# How it was run: as §1
# [22] = molecular target: Fuc(a1-2)[Gal(a1-3)]Gal(b1-4)GlcNAc(b1-2)Man(a1-3)[Fuc(a1-2)[Gal(a1-3)]Gal(b1-4)GlcNAc(b1-2)Man(a1-6)]Man(b1-4)GlcNAc(b1-4)GlcNAc
# How it was run: as §1
# [23] = molecular target: Fuc(a1-2)[Gal(a1-3)]Gal(b1-4)GlcNAc(b1-2)Man(a1-3)[Fuc(a1-2)[Gal(a1-3)]Gal(b1-4)GlcNAc(b1-2)Man(a1-6)]Man(b1-4)GlcNAc(b1-4)[Fuc(a1-6)]GlcNAc
# How it was run: as §1
# [24] = molecular target: Fuc(a1-2)[Gal(a1-3)]Gal(b1-4)GlcNAc(b1-3)GalNAc
# How it was run: as §1
# [25] = molecular target: Fuc(a1-2)[Gal(a1-3)]Gal(b1-4)GlcNAc(b1-3)[Fuc(a1-2)[Gal(a1-3)]Gal(b1-4)GlcNAc(b1-6)]GalNAc
# How it was run: as §1
# [26] = molecular target: Fuc(a1-2)[Gal(a1-3)]Gal(b1-4)GlcNAc(b1-6)GalNAc
# How it was run: as §1
# [27] = molecular target: Fuc(a1-2)[Gal(a1-3)]Gal(b1-4)[Fuc(a1-3)]Glc
# How it was run: as §1
# [28] = molecular target: Fuc(a1-2)[Gal(a1-3)]Gal(b1-4)[Fuc(a1-3)]GlcNAc
# How it was run: as §1
# [29] = molecular target: Fuc(a1-2)[Gal(a1-3)]Gal(b1-4)[Fuc(a1-3)]GlcNAc(b1-3)GalNAc
# How it was run: as §1
# [30] = molecular target: Fuc(a1-2)[Gal(a1-4)]Gal(b1-4)GlcNAc
# How it was run: as §1
# [31] = molecular target: Fuc(a1-2)[GalNAc(a1-3)]Gal
# How it was run: as §1
# [32] = molecular target: Fuc(a1-2)[GalNAc(a1-3)]Gal(b1-3)GalNAc(a1-3)[Fuc(a1-2)]Gal(b1-4)GlcNAc
# How it was run: as §1
# [33] = molecular target: Fuc(a1-2)[GalNAc(a1-3)]Gal(b1-3)GalNAc(b1-3)Gal(a1-4)Gal(b1-4)Glc
# How it was run: as §1
# [34] = molecular target: Fuc(a1-2)[GalNAc(a1-3)]Gal(b1-3)GlcNAc
# How it was run: as §1
# [35] = molecular target: Fuc(a1-2)[GalNAc(a1-3)]Gal(b1-3)GlcNAc(b1-2)Man(a1-3)[Fuc(a1-2)[GalNAc(a1-3)]Gal(b1-3)GlcNAc(b1-2)Man(a1-6)]Man(b1-4)GlcNAc(b1-4)GlcNAc
# How it was run: as §1
# [36] = molecular target: Fuc(a1-2)[GalNAc(a1-3)]Gal(b1-3)GlcNAc(b1-2)Man(a1-3)[Fuc(a1-2)[GalNAc(a1-3)]Gal(b1-3)GlcNAc(b1-2)Man(a1-6)]Man(b1-4)GlcNAc(b1-4)[Fuc(a1-6)]GlcNAc
# How it was run: as §1
binder,measurement,setting,value
B1,glycan array binding signal (z-score),[1],-0.378
same,glycan array binding signal (z-score),[2],0.091
same,glycan array binding signal (z-score),[3],0.794
same,glycan array binding signal (z-score),[4],0.391
same,glycan array binding signal (z-score),[5],-0.82
same,glycan array binding signal (z-score),[6],0.031
same,glycan array binding signal (z-score),[7],-0.198
same,glycan array binding signal (z-score),[8],-1.06
same,glycan array binding signal (z-score),[9],0.375
same,glycan array binding signal (z-score),[10],-0.342
same,glycan array binding signal (z-score),Fuc(a1-2)Gal6S(b1-4)Glc,-0.627
same,glycan array binding signal (z-score),[11],0.386
same,glycan array binding signal (z-score),Fuc(a1-2)[Gal(a1-3)]Gal,-0.551
same,glycan array binding signal (z-score),[12],-0.213
same,glycan array binding signal (z-score),[13],1.13
same,glycan array binding signal (z-score),[14],-0.361
same,glycan array binding signal (z-score),[15],0.04
same,glycan array binding signal (z-score),[16],-0.384
same,glycan array binding signal (z-score),[17],-0.057
same,glycan array binding signal (z-score),[18],-0.909
same,glycan array binding signal (z-score),[19],-0.159
same,glycan array binding signal (z-score),[20],-0.125
same,glycan array binding signal (z-score),[21],-0.987
same,glycan array binding signal (z-score),[22],-0.077
same,glycan array binding signal (z-score),[23],-0.11
same,glycan array binding signal (z-score),[24],-0.334
same,glycan array binding signal (z-score),[25],0.654
same,glycan array binding signal (z-score),[26],0.123
same,glycan array binding signal (z-score),[27],0.315
same,glycan array binding signal (z-score),[28],0.706
same,glycan array binding signal (z-score),[29],-0.261
same,glycan array binding signal (z-score),[30],0.015
same,glycan array binding signal (z-score),[31],-0.277
same,glycan array binding signal (z-score),[32],-1.05
same,glycan array binding signal (z-score),[33],1.33
same,glycan array binding signal (z-score),[34],0.186
same,glycan array binding signal (z-score),[35],1.1
same,glycan array binding signal (z-score),[36],0.048

# Some of the entries so far, bar-delimited:
binder | measurement | setting | value
B1 | glycan array binding signal (z-score) | [20] | -0.125
same | glycan array binding signal (z-score) | [21] | -0.987
same | glycan array binding signal (z-score) | [22] | -0.077
